Weaker means in comparison with the reference protein, sequence or condition of that experiment.
System: VEGF165 (vascular endothelial growth factor 165) (Homo sapiens)
Assay: ELONA
Conditions: antibody-captured VEGF; signal one eighth of FITC-3R02; purified recombinant protein; protein details: R&D Systems, expressed in Sf21 insect cells; label: 5'-FITC; single-stranded DNA; variant of VEap121

Chains of the proteins cited; added tags and fusions are not shown. Chains listed by the source or under a name are the forms on record and can include a tag or linker.
VEGF165 (vascular endothelial growth factor 165) (Homo sapiens), one chain, as listed by the source: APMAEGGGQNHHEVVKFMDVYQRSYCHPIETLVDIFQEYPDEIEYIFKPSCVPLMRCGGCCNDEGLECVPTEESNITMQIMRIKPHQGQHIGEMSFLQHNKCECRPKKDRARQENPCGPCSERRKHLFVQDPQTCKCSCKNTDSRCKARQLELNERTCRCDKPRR

“TGTGGGGGTGGACGGGCCGGGTAGA [FITC-VEap121]”: binds more weakly.

Source: patent publication US9683238
